This assay concerns the target Her2/neu抗原 (UniProt P04626). The assay can be described thus: phage display panning on coated antigen and phage ELISA, as in Example 2. A general note: In an ELISA, binding on a coated surface is turned into a signal by an enzyme label.

Drawing on patent publication CN110964113A, this text covers binding for one molecule.

No constants are given. Whether binding was seen depends on the method and setting. Some entries that bind do so weakly or less than the wild type.

B1: 人源化抗Her2/neu单域抗体(HerG1M) (VHH)
VHH: QVKLEESGGGLIKPGGSLRLSCAASGFRIIDEKMAWVRQAPGKGLEWVSAISSSGGSTYYADSVKGRFTISRDNSKNAVYLQMNSLRAEDTAVYYCVAVKPKCNMQNCRASVNFWGQGTQVTVSS
For B1, the binding entry is listed as “binds”.
